Measured values as given in patent publication US8933070B2, “Methods of targeting PTEN mutant diseases and compositions therefor” (University Health Network, priority 2010, dated 2015).
Some results were stated once for a whole list of compounds, not compound by compound.

Test system: PTEN negative (BT-549, CAMA-1 and MDA-MB-468) cell lines
Assay: Cell cycle analysis (sub-G1 DNA content, FACS)
Assay type: cell-based
Settings: PTEN negative cells; 2 days or 5 days after treatment

For `O=C1Nc2ccccc2[C@@]12C[C@@H]2c1ccc2c(/C=C/c3ccncc3)n[nH]c2c1` (racemic) [Compound 6], the “change in sub-G1 percentage” value was “significant increase in sub-G1 percentage”.
